Source: article PMC4963039
No constants are given. Whether binding was seen depends on the method and setting. In cells and extracts the contact can be indirect. Some binding calls cover weakened binding; strength is not graded here.

Amino acid sequences for entries named in this document (tags omitted). Residues count along the entry.
UniProt Q14114, residues 33-963: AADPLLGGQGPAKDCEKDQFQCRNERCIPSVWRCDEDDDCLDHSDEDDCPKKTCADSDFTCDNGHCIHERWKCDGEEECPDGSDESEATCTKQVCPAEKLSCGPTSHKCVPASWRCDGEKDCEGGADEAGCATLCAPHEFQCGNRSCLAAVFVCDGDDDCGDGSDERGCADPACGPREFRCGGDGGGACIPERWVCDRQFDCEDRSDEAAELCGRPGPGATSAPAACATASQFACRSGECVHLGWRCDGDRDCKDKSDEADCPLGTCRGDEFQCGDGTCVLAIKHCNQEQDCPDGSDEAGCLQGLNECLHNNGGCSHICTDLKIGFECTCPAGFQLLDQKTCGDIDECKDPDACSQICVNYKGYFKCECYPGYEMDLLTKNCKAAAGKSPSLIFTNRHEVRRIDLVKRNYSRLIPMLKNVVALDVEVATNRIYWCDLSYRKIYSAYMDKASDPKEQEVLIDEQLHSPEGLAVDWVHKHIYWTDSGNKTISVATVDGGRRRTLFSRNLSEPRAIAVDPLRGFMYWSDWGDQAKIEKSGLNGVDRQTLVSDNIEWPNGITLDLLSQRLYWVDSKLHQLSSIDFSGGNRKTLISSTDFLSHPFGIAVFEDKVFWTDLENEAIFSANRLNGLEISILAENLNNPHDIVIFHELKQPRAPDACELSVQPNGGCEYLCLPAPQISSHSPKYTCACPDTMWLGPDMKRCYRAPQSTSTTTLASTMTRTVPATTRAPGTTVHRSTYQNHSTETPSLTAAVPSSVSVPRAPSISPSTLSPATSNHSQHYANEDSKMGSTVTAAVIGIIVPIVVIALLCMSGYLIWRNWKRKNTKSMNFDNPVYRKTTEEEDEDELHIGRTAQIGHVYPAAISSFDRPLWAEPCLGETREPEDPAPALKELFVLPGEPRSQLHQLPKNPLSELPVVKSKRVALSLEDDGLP
UniProt P02749, residues 20-345: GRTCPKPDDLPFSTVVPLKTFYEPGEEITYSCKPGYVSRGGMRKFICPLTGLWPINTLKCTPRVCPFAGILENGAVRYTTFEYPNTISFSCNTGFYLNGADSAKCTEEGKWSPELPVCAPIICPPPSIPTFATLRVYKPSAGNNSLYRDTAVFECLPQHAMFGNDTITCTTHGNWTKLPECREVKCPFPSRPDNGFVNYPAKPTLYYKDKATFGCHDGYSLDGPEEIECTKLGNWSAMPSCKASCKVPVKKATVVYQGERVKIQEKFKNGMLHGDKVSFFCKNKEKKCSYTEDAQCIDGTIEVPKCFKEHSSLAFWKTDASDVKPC

Assays:
[1] = target: apolipoprotein E receptor 2 (human (endogenous in HAEC)) (UniProt Q14114); assay: co-IP + cross-linking; HAEC treated with the anti-β2-GPI mAb 3F8 (1 μg/ml) or polyclonal aPL (100 μg/ml), DTSSP cross-linker 1.5 mM 30 min RT, lysate, ApoER2 immunoprecipitated (anti-ApoER2 polyclonal, protein A/G agarose, 2 h, 4°C), β2-GPI detected by immunoblot with mAb 2aG4
[2] = target: apolipoprotein E receptor 2 (human (endogenous in HAEC)) (UniProt Q14114); assay: condition: only with 1N11 (200 μg/ml) added to 3F8 (1 μg/ml); co-IP + cross-linking; as a1, cells treated with 3F8 (1 μg/ml) with 1N11 added (200 μg/ml)
[3] = target: apolipoprotein E receptor 2 (human (endogenous in HAEC)) (UniProt Q14114); assay: condition: only cells treated with control IgG or 1N11 alone, without the inducing antibody 3F8; co-IP + cross-linking; as a1, but cells treated with control IgG (C44) or 1N11 alone, without 3F8 or aPL

Substance: β2-glycoprotein I (from UniProt P02749 20-345)
- binding [1]: binds
- binding [2]: no binding
- binding [3]: no binding
